Assay results from the supplement of paper PMC6411743.
± gives the standard deviation of the averaged measurements. The list shows a part of the results, in another mix than the full data.

By UniProt entry, the sequences of proteins in these tests, tags left out. Where a name states a change or a piece, a line headed by the entry shows the natural chain unless it says otherwise.
UniProt Q9Y6N5: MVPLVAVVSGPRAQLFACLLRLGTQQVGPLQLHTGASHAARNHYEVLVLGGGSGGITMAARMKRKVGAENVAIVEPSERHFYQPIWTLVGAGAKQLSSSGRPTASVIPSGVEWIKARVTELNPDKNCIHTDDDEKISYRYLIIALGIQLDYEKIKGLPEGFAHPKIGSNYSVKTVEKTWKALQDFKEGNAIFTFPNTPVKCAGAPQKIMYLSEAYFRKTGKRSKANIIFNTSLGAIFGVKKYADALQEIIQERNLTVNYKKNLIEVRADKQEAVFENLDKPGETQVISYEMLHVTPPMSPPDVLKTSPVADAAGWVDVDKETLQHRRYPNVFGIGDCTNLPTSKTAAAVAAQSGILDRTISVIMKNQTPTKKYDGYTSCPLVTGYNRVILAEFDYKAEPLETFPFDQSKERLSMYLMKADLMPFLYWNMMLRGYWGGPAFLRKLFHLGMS
UniProt Q9Y584: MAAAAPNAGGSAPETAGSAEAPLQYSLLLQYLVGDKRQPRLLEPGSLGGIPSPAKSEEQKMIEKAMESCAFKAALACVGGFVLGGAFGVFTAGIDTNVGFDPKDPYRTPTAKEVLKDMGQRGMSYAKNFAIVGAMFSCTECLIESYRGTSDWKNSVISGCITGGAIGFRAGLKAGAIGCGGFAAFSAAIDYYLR
UniProt Q9Y696: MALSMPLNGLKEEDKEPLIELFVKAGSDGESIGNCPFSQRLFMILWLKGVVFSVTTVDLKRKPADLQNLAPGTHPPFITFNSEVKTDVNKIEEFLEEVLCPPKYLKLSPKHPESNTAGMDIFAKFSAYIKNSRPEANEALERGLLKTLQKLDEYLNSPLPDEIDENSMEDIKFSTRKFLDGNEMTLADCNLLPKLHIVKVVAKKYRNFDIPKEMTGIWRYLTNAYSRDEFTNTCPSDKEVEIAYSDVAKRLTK
UniProt Q9Y2I8: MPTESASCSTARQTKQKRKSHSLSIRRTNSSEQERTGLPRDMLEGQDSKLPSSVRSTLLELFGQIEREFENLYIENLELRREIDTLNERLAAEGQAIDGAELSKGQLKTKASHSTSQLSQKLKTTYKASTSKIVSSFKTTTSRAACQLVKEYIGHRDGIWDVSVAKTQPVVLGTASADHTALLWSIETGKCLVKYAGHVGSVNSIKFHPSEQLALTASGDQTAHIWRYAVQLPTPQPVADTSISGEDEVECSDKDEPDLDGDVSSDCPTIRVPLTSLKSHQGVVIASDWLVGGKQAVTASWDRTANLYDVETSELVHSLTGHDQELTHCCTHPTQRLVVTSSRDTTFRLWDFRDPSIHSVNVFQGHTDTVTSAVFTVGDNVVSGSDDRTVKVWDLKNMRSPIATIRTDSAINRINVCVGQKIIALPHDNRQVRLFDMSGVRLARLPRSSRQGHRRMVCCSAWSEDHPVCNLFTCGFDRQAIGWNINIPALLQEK
UniProt Q9Y375: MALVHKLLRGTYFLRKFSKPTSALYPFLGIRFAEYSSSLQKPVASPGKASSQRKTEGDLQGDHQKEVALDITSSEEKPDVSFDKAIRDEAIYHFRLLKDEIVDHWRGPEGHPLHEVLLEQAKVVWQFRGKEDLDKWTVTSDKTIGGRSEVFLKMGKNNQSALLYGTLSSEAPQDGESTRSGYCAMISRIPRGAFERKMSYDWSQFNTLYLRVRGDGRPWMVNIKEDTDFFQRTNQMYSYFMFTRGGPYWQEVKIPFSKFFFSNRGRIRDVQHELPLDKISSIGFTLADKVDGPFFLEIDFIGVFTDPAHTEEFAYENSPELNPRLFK
UniProt Q9Y6G9, whole entry: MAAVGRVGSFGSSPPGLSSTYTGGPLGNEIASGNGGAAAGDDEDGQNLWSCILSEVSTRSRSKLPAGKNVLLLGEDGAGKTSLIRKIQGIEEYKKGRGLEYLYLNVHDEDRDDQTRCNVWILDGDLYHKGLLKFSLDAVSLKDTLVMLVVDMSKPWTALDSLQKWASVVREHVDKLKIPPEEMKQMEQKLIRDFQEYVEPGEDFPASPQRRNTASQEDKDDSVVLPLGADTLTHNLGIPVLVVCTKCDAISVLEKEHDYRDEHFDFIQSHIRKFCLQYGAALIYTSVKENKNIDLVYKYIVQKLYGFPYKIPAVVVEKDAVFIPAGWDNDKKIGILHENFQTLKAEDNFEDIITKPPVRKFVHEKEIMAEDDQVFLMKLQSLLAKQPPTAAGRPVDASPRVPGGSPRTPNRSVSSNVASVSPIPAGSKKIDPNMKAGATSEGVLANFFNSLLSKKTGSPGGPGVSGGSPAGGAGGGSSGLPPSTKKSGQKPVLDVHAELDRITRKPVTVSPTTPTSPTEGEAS
UniProt Q9Y4P1: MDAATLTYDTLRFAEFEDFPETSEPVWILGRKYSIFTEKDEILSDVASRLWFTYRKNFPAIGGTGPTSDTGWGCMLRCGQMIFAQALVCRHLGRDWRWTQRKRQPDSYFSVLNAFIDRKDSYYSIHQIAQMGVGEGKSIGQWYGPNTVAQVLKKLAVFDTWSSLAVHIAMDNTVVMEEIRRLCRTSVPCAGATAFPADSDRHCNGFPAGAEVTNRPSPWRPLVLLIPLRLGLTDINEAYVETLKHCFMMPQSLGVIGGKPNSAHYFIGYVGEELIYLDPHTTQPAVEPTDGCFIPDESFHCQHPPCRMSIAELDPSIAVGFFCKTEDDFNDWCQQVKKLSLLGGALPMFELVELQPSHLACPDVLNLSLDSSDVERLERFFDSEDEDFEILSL
UniProt Q9Y5V0: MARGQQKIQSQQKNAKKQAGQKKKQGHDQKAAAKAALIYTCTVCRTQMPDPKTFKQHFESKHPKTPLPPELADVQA
UniProt Q9Y4C8: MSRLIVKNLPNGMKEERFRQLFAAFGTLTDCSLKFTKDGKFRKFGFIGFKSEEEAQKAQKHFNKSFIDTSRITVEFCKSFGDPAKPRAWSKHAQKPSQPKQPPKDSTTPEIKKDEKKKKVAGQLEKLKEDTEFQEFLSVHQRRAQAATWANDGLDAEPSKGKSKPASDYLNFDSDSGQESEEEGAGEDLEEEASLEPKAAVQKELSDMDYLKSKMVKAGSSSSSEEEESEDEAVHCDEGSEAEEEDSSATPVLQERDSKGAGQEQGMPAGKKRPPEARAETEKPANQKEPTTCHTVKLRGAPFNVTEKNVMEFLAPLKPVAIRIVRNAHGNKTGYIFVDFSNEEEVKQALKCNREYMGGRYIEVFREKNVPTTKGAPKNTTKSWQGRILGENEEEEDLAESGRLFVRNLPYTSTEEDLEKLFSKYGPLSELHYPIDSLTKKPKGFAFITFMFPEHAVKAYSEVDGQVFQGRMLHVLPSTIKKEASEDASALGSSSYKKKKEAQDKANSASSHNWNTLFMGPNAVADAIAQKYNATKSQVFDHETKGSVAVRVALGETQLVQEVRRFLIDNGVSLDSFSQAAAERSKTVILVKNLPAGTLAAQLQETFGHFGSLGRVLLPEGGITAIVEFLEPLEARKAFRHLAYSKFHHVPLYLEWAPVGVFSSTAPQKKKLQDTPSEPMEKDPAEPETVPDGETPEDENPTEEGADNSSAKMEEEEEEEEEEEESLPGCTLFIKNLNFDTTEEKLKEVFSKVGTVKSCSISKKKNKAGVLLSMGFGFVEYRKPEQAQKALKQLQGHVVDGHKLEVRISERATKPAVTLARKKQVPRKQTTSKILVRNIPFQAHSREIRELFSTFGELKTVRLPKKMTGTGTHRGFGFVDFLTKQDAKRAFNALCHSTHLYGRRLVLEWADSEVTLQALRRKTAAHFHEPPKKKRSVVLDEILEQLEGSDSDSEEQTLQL
UniProt Q9Y2H1: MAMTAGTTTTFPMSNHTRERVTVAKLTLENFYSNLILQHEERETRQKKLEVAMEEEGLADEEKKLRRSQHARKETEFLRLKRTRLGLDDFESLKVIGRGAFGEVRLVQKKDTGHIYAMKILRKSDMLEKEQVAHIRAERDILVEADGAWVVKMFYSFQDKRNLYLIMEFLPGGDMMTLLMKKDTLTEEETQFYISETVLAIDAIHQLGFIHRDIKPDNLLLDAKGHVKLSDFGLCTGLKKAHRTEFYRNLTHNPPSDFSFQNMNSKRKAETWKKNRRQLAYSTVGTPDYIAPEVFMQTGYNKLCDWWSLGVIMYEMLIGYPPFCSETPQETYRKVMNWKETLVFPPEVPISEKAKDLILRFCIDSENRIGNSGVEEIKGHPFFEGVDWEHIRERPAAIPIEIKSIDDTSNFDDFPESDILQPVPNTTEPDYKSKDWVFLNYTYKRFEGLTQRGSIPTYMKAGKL
UniProt Q9Y3R5: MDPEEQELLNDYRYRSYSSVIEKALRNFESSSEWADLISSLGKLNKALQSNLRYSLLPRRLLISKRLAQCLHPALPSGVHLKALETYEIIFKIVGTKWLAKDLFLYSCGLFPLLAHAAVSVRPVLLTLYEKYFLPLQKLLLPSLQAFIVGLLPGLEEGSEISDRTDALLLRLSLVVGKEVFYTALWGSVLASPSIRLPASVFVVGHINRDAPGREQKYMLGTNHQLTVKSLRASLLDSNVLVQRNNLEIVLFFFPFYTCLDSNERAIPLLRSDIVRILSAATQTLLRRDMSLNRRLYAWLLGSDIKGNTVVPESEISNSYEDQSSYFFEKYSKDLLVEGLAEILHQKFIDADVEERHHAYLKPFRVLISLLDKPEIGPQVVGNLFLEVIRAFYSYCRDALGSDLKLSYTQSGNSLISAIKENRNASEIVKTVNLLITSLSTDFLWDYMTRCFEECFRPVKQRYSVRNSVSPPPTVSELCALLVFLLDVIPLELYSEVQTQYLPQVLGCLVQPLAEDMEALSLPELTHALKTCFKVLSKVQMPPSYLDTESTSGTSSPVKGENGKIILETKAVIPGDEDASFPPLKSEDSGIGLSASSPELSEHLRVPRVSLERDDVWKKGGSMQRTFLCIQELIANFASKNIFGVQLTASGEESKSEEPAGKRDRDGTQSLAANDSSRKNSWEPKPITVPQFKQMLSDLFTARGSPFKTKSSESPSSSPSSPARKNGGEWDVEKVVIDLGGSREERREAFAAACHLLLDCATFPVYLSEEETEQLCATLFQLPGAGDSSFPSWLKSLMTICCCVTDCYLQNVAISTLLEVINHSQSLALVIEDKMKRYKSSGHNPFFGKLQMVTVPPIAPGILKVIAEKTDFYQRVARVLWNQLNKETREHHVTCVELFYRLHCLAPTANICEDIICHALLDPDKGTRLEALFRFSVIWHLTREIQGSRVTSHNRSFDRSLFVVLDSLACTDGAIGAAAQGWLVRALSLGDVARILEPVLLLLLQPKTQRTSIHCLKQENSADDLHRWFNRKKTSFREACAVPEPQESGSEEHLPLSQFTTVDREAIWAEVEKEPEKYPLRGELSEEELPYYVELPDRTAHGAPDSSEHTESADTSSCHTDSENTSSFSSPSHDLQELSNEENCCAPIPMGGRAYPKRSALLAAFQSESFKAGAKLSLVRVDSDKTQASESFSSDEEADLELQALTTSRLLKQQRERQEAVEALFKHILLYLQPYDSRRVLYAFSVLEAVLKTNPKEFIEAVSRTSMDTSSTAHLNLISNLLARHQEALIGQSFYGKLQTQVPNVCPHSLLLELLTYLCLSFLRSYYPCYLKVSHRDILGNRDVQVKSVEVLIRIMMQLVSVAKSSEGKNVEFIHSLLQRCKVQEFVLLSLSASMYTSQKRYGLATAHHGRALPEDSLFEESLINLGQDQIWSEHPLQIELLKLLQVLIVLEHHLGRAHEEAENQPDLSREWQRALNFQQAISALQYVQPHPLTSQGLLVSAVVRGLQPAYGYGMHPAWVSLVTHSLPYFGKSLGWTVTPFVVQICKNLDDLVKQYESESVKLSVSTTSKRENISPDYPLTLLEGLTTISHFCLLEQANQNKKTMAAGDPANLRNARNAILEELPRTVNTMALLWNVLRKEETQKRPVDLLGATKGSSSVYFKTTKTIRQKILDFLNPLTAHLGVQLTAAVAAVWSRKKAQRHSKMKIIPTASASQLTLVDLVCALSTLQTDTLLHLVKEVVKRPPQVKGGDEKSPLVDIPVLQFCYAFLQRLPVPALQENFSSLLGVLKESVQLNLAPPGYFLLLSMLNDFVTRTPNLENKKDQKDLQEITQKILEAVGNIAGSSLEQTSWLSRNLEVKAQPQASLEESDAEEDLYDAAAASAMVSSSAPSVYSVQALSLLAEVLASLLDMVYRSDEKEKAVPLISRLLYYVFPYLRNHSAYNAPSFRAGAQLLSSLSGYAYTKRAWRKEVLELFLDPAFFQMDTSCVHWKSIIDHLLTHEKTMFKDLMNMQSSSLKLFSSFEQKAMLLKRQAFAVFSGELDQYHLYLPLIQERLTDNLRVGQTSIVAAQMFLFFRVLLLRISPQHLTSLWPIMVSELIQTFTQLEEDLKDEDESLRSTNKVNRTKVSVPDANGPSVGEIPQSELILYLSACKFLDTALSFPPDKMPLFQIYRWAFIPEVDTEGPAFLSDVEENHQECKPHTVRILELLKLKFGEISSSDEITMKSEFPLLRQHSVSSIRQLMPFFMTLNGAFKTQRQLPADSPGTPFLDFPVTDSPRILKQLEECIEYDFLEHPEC
UniProt Q9Y3E0: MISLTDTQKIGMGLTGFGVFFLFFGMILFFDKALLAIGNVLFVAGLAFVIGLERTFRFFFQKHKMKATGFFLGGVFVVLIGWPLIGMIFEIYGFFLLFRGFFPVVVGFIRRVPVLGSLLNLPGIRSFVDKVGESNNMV

Compound: Nc1ncnc2c1ncn2[C@@H]1O[C@H](COP(=O)(O)OP(=O)(O)OP(=O)(O)O)[C@@H](O)[C@H]1O [adenosine triphosphate]
Assay: NP40-soluble protein abundance relative to vehicle (solubility fold change) (ratio); higher = more soluble protein in presence of ATP
Procedure, shortened: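 Crude Jurkat lysate, prepared by Dounce homogenisation, was exposed to eight concentrations from 0.1 to 10 mM for 10 min at room temperature and then 3 min at 37 °C. Solubilisation used 0.8% NP40 with benzonase for 60 min at 4 °C, followed by ultracentrifugation and TMT labelling of the supernatant for LC-MS/MS. After vsn normalisation of intensities, each value is the fold change against the detergent-processed vehicle within each replicate, across three independent experiments.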

UniProt Q9Y6N5
NP40-soluble protein abundance (concentration: 1mM): 1.05 ± 0.084 | NP40-soluble protein abundance (concentration: 2mM): 0.986 ± 0.059 | NP40-soluble protein abundance (concentration: 4mM): 0.973 ± 0.061 | NP40-soluble protein abundance (concentration: 6mM): 0.951 ± 0.087 | NP40-soluble protein abundance (concentration: 8mM): 1.02 ± 0.041 | NP40-soluble protein abundance (concentration: 10mM): 0.991 ± 0.039

ICE1 (UniProt Q9Y2F5)
NP40-soluble protein abundance (concentration: 1mM): 1.18 ± 0.19 | NP40-soluble protein abundance (concentration: 2mM): 1.23 ± 0.23 | NP40-soluble protein abundance (concentration: 4mM): 1.24 ± 0.27 | NP40-soluble protein abundance (concentration: 6mM): 1.42 ± 0.38 | NP40-soluble protein abundance (concentration: 8mM): 1.22 ± 0.26 | NP40-soluble protein abundance (concentration: 10mM): 1.29 ± 0.33

UniProt Q9Y3B4
NP40-soluble protein abundance (concentration: 1mM): 1.12 ± 0.069 | NP40-soluble protein abundance (concentration: 2mM): 1.11 ± 0.059 | NP40-soluble protein abundance (concentration: 4mM): 1.2 ± 0.097 | NP40-soluble protein abundance (concentration: 6mM): 1.12 ± 0.054 | NP40-soluble protein abundance (concentration: 8mM): 1.23 ± 0.05 | NP40-soluble protein abundance (concentration: 10mM): 1.15 ± 0.1

TIMM22 (UniProt Q9Y584)
NP40-soluble protein abundance (concentration: 1mM): 0.839 ± 0.049 | NP40-soluble protein abundance (concentration: 2mM): 0.872 ± 0.064 | NP40-soluble protein abundance (concentration: 4mM): 0.902 ± 0.088 | NP40-soluble protein abundance (concentration: 6mM): 0.908 ± 0.14 | NP40-soluble protein abundance (concentration: 8mM): 0.813 ± 0.15 | NP40-soluble protein abundance (concentration: 10mM): 0.855 ± 0.14

CLIC4 (UniProt Q9Y696)
NP40-soluble protein abundance (concentration: 1mM): 0.988 ± 0.037 | NP40-soluble protein abundance (concentration: 2mM): 0.992 ± 0.036 | NP40-soluble protein abundance (concentration: 4mM): 0.972 ± 0.018 | NP40-soluble protein abundance (concentration: 6mM): 0.985 ± 0.04 | NP40-soluble protein abundance (concentration: 8mM): 0.956 ± 0.034 | NP40-soluble protein abundance (concentration: 10mM): 0.955 ± 0.044

UniProt Q9Y2I8 and related entries
NP40-soluble protein abundance (concentration: 1mM): 1.01 ± 0.029 | NP40-soluble protein abundance (concentration: 2mM): 0.985 ± 0.012 | NP40-soluble protein abundance (concentration: 4mM): 0.983 ± 0.024 | NP40-soluble protein abundance (concentration: 6mM): 0.931 ± 0.026 | NP40-soluble protein abundance (concentration: 8mM): 0.994 ± 0.034 | NP40-soluble protein abundance (concentration: 10mM): 0.991 ± 0.016

NDUFAF1 (UniProt Q9Y375)
NP40-soluble protein abundance (concentration: 1mM): 0.998 ± 0.059 | NP40-soluble protein abundance (concentration: 2mM): 0.989 ± 0.051 | NP40-soluble protein abundance (concentration: 4mM): 0.965 ± 0.061 | NP40-soluble protein abundance (concentration: 6mM): 0.955 ± 0.075 | NP40-soluble protein abundance (concentration: 8mM): 0.986 ± 0.041 | NP40-soluble protein abundance (concentration: 10mM): 0.965 ± 0.033

OAS3 (UniProt Q9Y6K5)
NP40-soluble protein abundance (concentration: 1mM): 1.02 ± 0.082 | NP40-soluble protein abundance (concentration: 2mM): 1.01 ± 0.053 | NP40-soluble protein abundance (concentration: 4mM): 1.02 ± 0.06 | NP40-soluble protein abundance (concentration: 6mM): 0.997 ± 0.11 | NP40-soluble protein abundance (concentration: 8mM): 1.03 ± 0.043 | NP40-soluble protein abundance (concentration: 10mM): 1.03 ± 0.055

DYNC1LI1 (UniProt Q9Y6G9)
NP40-soluble protein abundance (concentration: 1mM): 0.982 ± 0.043 | NP40-soluble protein abundance (concentration: 2mM): 0.958 ± 0.048 | NP40-soluble protein abundance (concentration: 4mM): 0.924 ± 0.051 | NP40-soluble protein abundance (concentration: 6mM): 0.968 ± 0.13 | NP40-soluble protein abundance (concentration: 8mM): 0.942 ± 0.066 | NP40-soluble protein abundance (concentration: 10mM): 0.939 ± 0.032

UniProt Q9Y4P1 and related entries
NP40-soluble protein abundance (concentration: 1mM): 1.05 ± 0.15 | NP40-soluble protein abundance (concentration: 2mM): 1.01 ± 0.11 | NP40-soluble protein abundance (concentration: 4mM): 0.992 ± 0.1 | NP40-soluble protein abundance (concentration: 6mM): 0.928 ± 0.15 | NP40-soluble protein abundance (concentration: 8mM): 0.97 ± 0.086 | NP40-soluble protein abundance (concentration: 10mM): 0.999 ± 0.059

MAD1L1 (UniProt Q9Y6D9)
NP40-soluble protein abundance (concentration: 1mM): 0.98 ± 0.017 | NP40-soluble protein abundance (concentration: 2mM): 0.982 ± 0.015 | NP40-soluble protein abundance (concentration: 4mM): 0.98 ± 0.012 | NP40-soluble protein abundance (concentration: 6mM): 1 ± 0.017 | NP40-soluble protein abundance (concentration: 8mM): 0.956 ± 0.029 | NP40-soluble protein abundance (concentration: 10mM): 0.959 ± 0.016

UniProt Q9Y5V0
NP40-soluble protein abundance (concentration: 1mM): 0.924 ± 0.12 | NP40-soluble protein abundance (concentration: 2mM): 0.992 ± 0.099 | NP40-soluble protein abundance (concentration: 4mM): 0.963 ± 0.21 | NP40-soluble protein abundance (concentration: 6mM): 0.911 ± 0.088 | NP40-soluble protein abundance (concentration: 8mM): 0.802 ± 0.15 | NP40-soluble protein abundance (concentration: 10mM): 0.841 ± 0.2

RBM19 (UniProt Q9Y4C8)
NP40-soluble protein abundance (concentration: 1mM): 0.993 ± 0.057 | NP40-soluble protein abundance (concentration: 2mM): 1.02 ± 0.023 | NP40-soluble protein abundance (concentration: 4mM): 1.1 ± 0.038 | NP40-soluble protein abundance (concentration: 6mM): 1.18 ± 0.021 | NP40-soluble protein abundance (concentration: 8mM): 1.16 ± 0.045 | NP40-soluble protein abundance (concentration: 10mM): 1.25 ± 0.11

TAF6L (UniProt Q9Y6J9)
NP40-soluble protein abundance (concentration: 1mM): 1.08 ± 0.11 | NP40-soluble protein abundance (concentration: 2mM): 1.1 ± 0.05 | NP40-soluble protein abundance (concentration: 4mM): 1.08 ± 0.015 | NP40-soluble protein abundance (concentration: 6mM): 1.02 ± 0.063 | NP40-soluble protein abundance (concentration: 8mM): 1.08 ± 0.011 | NP40-soluble protein abundance (concentration: 10mM): 1.11 ± 0.075

UniProt Q9Y2H1
NP40-soluble protein abundance (concentration: 1mM): 1.09 ± 0.047 | NP40-soluble protein abundance (concentration: 2mM): 1.07 ± 0.054 | NP40-soluble protein abundance (concentration: 4mM): 1.02 ± 0.033 | NP40-soluble protein abundance (concentration: 6mM): 1.05 ± 0.098 | NP40-soluble protein abundance (concentration: 8mM): 1.08 ± 0.043 | NP40-soluble protein abundance (concentration: 10mM): 1.02 ± 0.018

UniProt Q9Y3R5 and related entries
NP40-soluble protein abundance (concentration: 1mM): 1.02 ± 0.054 | NP40-soluble protein abundance (concentration: 2mM): 1.02 ± 0.057 | NP40-soluble protein abundance (concentration: 4mM): 1.02 ± 0.052 | NP40-soluble protein abundance (concentration: 6mM): 0.968 ± 0.062 | NP40-soluble protein abundance (concentration: 8mM): 1.04 ± 0.064 | NP40-soluble protein abundance (concentration: 10mM): 0.986 ± 0.046

EXOSC1 (UniProt Q9Y3B2)
NP40-soluble protein abundance (concentration: 1mM): 1.03 ± 0.044 | NP40-soluble protein abundance (concentration: 2mM): 1.05 ± 0.026 | NP40-soluble protein abundance (concentration: 4mM): 1.06 ± 0.038 | NP40-soluble protein abundance (concentration: 6mM): 1.1 ± 0.058 | NP40-soluble protein abundance (concentration: 8mM): 1.14 ± 0.051 | NP40-soluble protein abundance (concentration: 10mM): 1.19 ± 0.034

GOLT1B (UniProt Q9Y3E0)
NP40-soluble protein abundance (concentration: 1mM): 0.997 ± 0.051 | NP40-soluble protein abundance (concentration: 2mM): 1.01 ± 0.15 | NP40-soluble protein abundance (concentration: 4mM): 1.07 ± 0.099 | NP40-soluble protein abundance (concentration: 6mM): 0.997 ± 0.1 | NP40-soluble protein abundance (concentration: 8mM): 0.987 ± 0.032 | NP40-soluble protein abundance (concentration: 10mM): 1.04 ± 0.042
